PubChem BioAssay AID652259 | Drosophila RNAi Screening Center – 2013

- Purpose: 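Genome-wide hunt for genes that control Wingless pathway activity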 (primary screen)
- Cell system: Drosophila clone 8 imaginal disc epithelial cells
- Reagents: long dsRNA against Drosophila genes
- Challenge: pathway stimulated by co-transfected Wingless expression plasmid
- Read-out: 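Dual luciferase reads per well after Wingless plasmid stimulation: reporter firefly light and Renilla control light; activity is firefly divided by Renilla, a ratio not deposited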
- Reading the numbers: firefly reporter light: higher = more Wg reporter light, before normalisation; Renilla control light: higher = more transfected or surviving cells
- Hit rule: 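a knock-down is a candidate when at least two out of four statistical tests show it departing from its plate mean; one test alone signals a weak candidate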
- Meaning of the calls: active = candidate regulator (raises or lowers reporter); inactive = not a candidate
In all, the deposit lists about 22,000 reagents; below is an unselected part of those that have a named target and a result. In the full data, 233 (1.1%) are marked active. 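Light values are raw, unnormalised plate reads; the ratio scores behind the reporter calls were not deposited.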 Names joined by + are all predicted targets of the reagent. Reagent sequences are not shown. The record does not give: the amount of reagent, the time to read-out, the dose of the treatment.

Pabp2 [DRSC07501]: firefly reporter light, replicate 1 = 2198; firefly reporter light, replicate 2 = 4242; Renilla control light, replicate 1 = 336; Renilla control light, replicate 2 = 1466; activity call = inactive
dpr10 [DRSC09015]: firefly reporter light, replicate 1 = 4268; Renilla control light, replicate 1 = 1616; activity call = inactive
dpr10 [DRSC09018]: firefly reporter light, replicate 1 = 4253; Renilla control light, replicate 1 = 2256; activity call = inactive
dpr10 [DRSC10159]: firefly reporter light, replicate 1 = 7878; Renilla control light, replicate 1 = 2709; activity call = inactive
dpr10 [DRSC10160]: firefly reporter light, replicate 1 = 5282; Renilla control light, replicate 1 = 2294; activity call = inactive
chif [DRSC03508]: firefly reporter light, replicate 1 = 8656; Renilla control light, replicate 1 = 2522; activity call = inactive
CG7550 [DRSC10875]: firefly reporter light, replicate 1 = 2000; firefly reporter light, replicate 2 = 6850; Renilla control light, replicate 1 = 1174; Renilla control light, replicate 2 = 2738; activity call = inactive
Spn77Bb + Spn77Bc [DRSC10689]: firefly reporter light, replicate 1 = 20643; Renilla control light, replicate 1 = 7997; activity call = inactive
Spn77Bb + Spn77Bc [DRSC11793]: firefly reporter light, replicate 1 = 14641; Renilla control light, replicate 1 = 5888; activity call = inactive
CG7695 [DRSC16289]: firefly reporter light, replicate 1 = 18919; Renilla control light, replicate 1 = 4009; activity call = inactive
srl [DRSC12340]: firefly reporter light, replicate 1 = 23480; Renilla control light, replicate 1 = 4841; activity call = inactive
c11.1 [DRSC18749]: firefly reporter light, replicate 1 = 17716; Renilla control light, replicate 1 = 9878; activity call = inactive
CG4053 [DRSC15538]: firefly reporter light, replicate 1 = 16765; firefly reporter light, replicate 2 = 6.97e5; Renilla control light, replicate 1 = 4848; Renilla control light, replicate 2 = 2.87e5; activity call = inactive
CG2162 [DRSC08557]: firefly reporter light, replicate 1 = 2845; Renilla control light, replicate 1 = 627; activity call = inactive
CG42821 [DRSC13231]: firefly reporter light, replicate 1 = 4336; Renilla control light, replicate 1 = 1811; activity call = inactive
CG8170 [DRSC07087]: firefly reporter light, replicate 1 = 2944; firefly reporter light, replicate 2 = 5545; Renilla control light, replicate 1 = 1046; Renilla control light, replicate 2 = 2952; activity call = inactive
Cpr65Aw [DRSC08794]: firefly reporter light, replicate 1 = 3639; Renilla control light, replicate 1 = 1860; activity call = inactive
prd1 [DRSC15227]: firefly reporter light, replicate 1 = 28036; Renilla control light, replicate 1 = 3978; activity call = inactive
Daao1 [DRSC06131]: firefly reporter light, replicate 1 = 1396; firefly reporter light, replicate 2 = 6692; Renilla control light, replicate 1 = 523; Renilla control light, replicate 2 = 3313; activity call = inactive
OstDelta [DRSC06980]: firefly reporter light, replicate 1 = 10490; Renilla control light, replicate 1 = 5044; activity call = inactive
CG12567 [DRSC20845]: firefly reporter light, replicate 1 = 19024; Renilla control light, replicate 1 = 12912; activity call = inactive
Nup93-1 [DRSC19344]: firefly reporter light, replicate 1 = 2472; firefly reporter light, replicate 2 = 6624; Renilla control light, replicate 1 = 496; Renilla control light, replicate 2 = 1537; activity call = inactive
CG30377 [DRSC06477]: firefly reporter light, replicate 1 = 12258; Renilla control light, replicate 1 = 2325; activity call = inactive
CG30377 [DRSC06799]: firefly reporter light, replicate 1 = 3049; firefly reporter light, replicate 2 = 7328; Renilla control light, replicate 1 = 564; Renilla control light, replicate 2 = 1013; activity call = inactive
Vps26 [DRSC18555]: firefly reporter light, replicate 1 = 2384; firefly reporter light, replicate 2 = 6944; Renilla control light, replicate 1 = 1232; Renilla control light, replicate 2 = 2166; activity call = inactive
CG32984 [DRSC21602]: firefly reporter light, replicate 1 = 5.32e5; firefly reporter light, replicate 2 = 5.29e5; Renilla control light, replicate 1 = 3.15e5; Renilla control light, replicate 2 = 1.94e5; activity call = inactive
Efhc1.1 [DRSC20135]: firefly reporter light, replicate 1 = 15074; Renilla control light, replicate 1 = 6189; activity call = inactive
Impbeta11 + asRNA:CR43429 [DRSC07525]: firefly reporter light, replicate 1 = 5801; Renilla control light, replicate 1 = 2114; activity call = inactive
CG1632 [DRSC17558]: firefly reporter light, replicate 1 = 3409; Renilla control light, replicate 1 = 973; activity call = inactive
CG1632 [DRSC18110]: firefly reporter light, replicate 1 = 20251; Renilla control light, replicate 1 = 11563; activity call = inactive
CG12818 [DRSC14556]: firefly reporter light, replicate 1 = 9702; Renilla control light, replicate 1 = 2704; activity call = inactive
CG15695 [DRSC15117]: firefly reporter light, replicate 1 = 16851; Renilla control light, replicate 1 = 3431; activity call = inactive

Copied from above, 3 entries:
Efhc1.1 [DRSC20135]: firefly reporter light, replicate 1 = 15074; Renilla control light, replicate 1 = 6189; activity call = inactive
Impbeta11 + asRNA:CR43429 [DRSC07525]: firefly reporter light, replicate 1 = 5801; Renilla control light, replicate 1 = 2114; activity call = inactive
CG1632 [DRSC17558]: firefly reporter light, replicate 1 = 3409; Renilla control light, replicate 1 = 973; activity call = inactive
